Taken from: PubChem BioAssay AID1053208 (Peter MacCallum Cancer Centre, 2014)
This is one part, drawn at random, of about 17,000 reagents. Over the whole deposit, 788 (4.7%) were called active. 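Calls rest on z-score classes alone; an extra cut-off of viability at most 70% of control was not applied to them.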 Further read-outs or replicates are left out here.

Assay: 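Synthetic lethal interactions between gene loss and doxorubicin in osteosarcoma cells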 (primary screen)
Cell system: mouse osteosarcoma cells, early-passage culture from an engineered mouse model of fibroblastic bone tumour
Knock-down reagent: siRNA pool against mouse genes, 40 nM
Duration: about 120 h (48 h before drug, then 72 h with drug)
Challenge: doxorubicin 100 nM for 72 h, roughly 30-40% inhibitory dose
Detection: 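Luminescent ATP signal taken as viability with or without 100 nM doxorubicin for 72 h; mean of two wells set against non-targeting siRNA and turned into robust z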
Reading the numbers: viability z-score with doxorubicin: higher = more viable cells under doxorubicin; viability z-score without drug: higher = more viable cells with knock-down alone
Rule for the call: 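Called active if knock-down leaves viability unchanged without drug (z within -2 to 2) but lowers it with doxorubicin (z at or under -2)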

Mrgprb3 (MAS-related GPR, member B3) — combined z-score class = no change with or without drug; viability z-score with doxorubicin = 1.8; viability z-score without drug = -1.52; activity call = inactive
4931406H21Rik (RIKEN cDNA 4931406H21 gene) — combined z-score class = no change with or without drug; viability z-score with doxorubicin = 1.12; viability z-score without drug = 1.18; activity call = inactive
Crip2 (cysteine rich protein 2) — combined z-score class = no change with or without drug; viability z-score with doxorubicin = 0.45; viability z-score without drug = 0.84; activity call = inactive
Tmem106c (transmembrane protein 106C) — combined z-score class = no change with or without drug; viability z-score with doxorubicin = 1.12; viability z-score without drug = -0.84; activity call = inactive
Sae1 (SUMO1 activating enzyme subunit 1) — combined z-score class = no change with or without drug; viability z-score with doxorubicin = 0; viability z-score without drug = 0.34; activity call = inactive
Lrrc28 (leucine rich repeat containing 28) — combined z-score class = no change with or without drug; viability z-score with doxorubicin = -0.9; viability z-score without drug = 0.84; activity call = inactive
Rbp4 (retinol binding protein 4, plasma) — combined z-score class = no change with or without drug; viability z-score with doxorubicin = -0.67; viability z-score without drug = -1.52; activity call = inactive
Bsdc1 (BSD domain containing 1) — combined z-score class = no change with or without drug; viability z-score with doxorubicin = 1.35; viability z-score without drug = 1.52; activity call = inactive
Mlycd (malonyl-CoA decarboxylase) — combined z-score class = no change with or without drug; viability z-score with doxorubicin = 1.91; viability z-score without drug = 0.51; activity call = inactive
Chrac1 (chromatin accessibility complex 1) — combined z-score class = no change with or without drug; viability z-score with doxorubicin = 0; viability z-score without drug = 0.17; activity call = inactive

An excerpt from above, reduced to “combined z-score class”:
4931406H21Rik (RIKEN cDNA 4931406H21 gene): no change with or without drug
Crip2 (cysteine rich protein 2): no change with or without drug

Next results follow:
Mapkapk2 (MAP kinase-activated protein kinase 2) — combined z-score class = no change with or without drug; viability z-score with doxorubicin = 1.12; viability z-score without drug = 1.52; activity call = inactive
Cerk (ceramide kinase) — combined z-score class = no change with or without drug; viability z-score with doxorubicin = -1.12; viability z-score without drug = 0; activity call = inactive
Efnb1 (ephrin B1) — combined z-score class = no change with or without drug; viability z-score with doxorubicin = -1.12; viability z-score without drug = -0.34; activity call = inactive
BC016548 (cDNA sequence BC016548) — combined z-score class = no change with or without drug; viability z-score with doxorubicin = 1.57; viability z-score without drug = 1.18; activity call = inactive
Gng10 (guanine nucleotide binding protein (G protein), gamma 10) — combined z-score class = no change with or without drug; viability z-score with doxorubicin = 1.35; viability z-score without drug = 1.85; activity call = inactive
Tex9 (testis expressed gene 9) — combined z-score class = no change with or without drug; viability z-score with doxorubicin = 1.24; viability z-score without drug = 1.85; activity call = inactive
Rbpjl — combined z-score class = no change with or without drug; viability z-score with doxorubicin = 0; viability z-score without drug = -0.34; activity call = inactive
Fbxl14 (F-box and leucine-rich repeat protein 14) — combined z-score class = no change with or without drug; viability z-score with doxorubicin = 0.9; viability z-score without drug = 0.34; activity call = inactive
Ncoa1 (nuclear receptor coactivator 1) — combined z-score class = no change with or without drug; viability z-score with doxorubicin = -1.12; viability z-score without drug = -0.67; activity call = inactive
Trim42 (tripartite motif-containing 42) — combined z-score class = low cell count with doxorubicin only; viability z-score with doxorubicin = -2.02; viability z-score without drug = -1.52; activity call = active
Cep295nl (CEP295 N-terminal like) — combined z-score class = no change with or without drug; viability z-score with doxorubicin = 0.9; viability z-score without drug = 0.51; activity call = inactive
Bnip2 (BCL2/adenovirus E1B interacting protein 2) — combined z-score class = no change with or without drug; viability z-score with doxorubicin = 0.67; viability z-score without drug = 1.18; activity call = inactive
Dcaf7 (DDB1 and CUL4 associated factor 7) — combined z-score class = no change with or without drug; viability z-score with doxorubicin = -0.22; viability z-score without drug = -0.17; activity call = inactive
Or6c1 (olfactory receptor family 6 subfamily C member 1) — combined z-score class = low cell count with doxorubicin only; viability z-score with doxorubicin = -2.7; viability z-score without drug = -0.84; activity call = active
Sf1 (splicing factor 1) — combined z-score class = no change with or without drug; viability z-score with doxorubicin = 0.45; viability z-score without drug = 0.84; activity call = inactive
Mon2 (MON2 homolog, regulator of endosome to Golgi trafficking) — combined z-score class = no change with or without drug; viability z-score with doxorubicin = 0.9; viability z-score without drug = 0.17; activity call = inactive
Lypd6b (LY6/PLAUR domain containing 6B) — combined z-score class = no change with or without drug; viability z-score with doxorubicin = -1.8; viability z-score without drug = 0.84; activity call = inactive
Ccdc51 (coiled-coil domain containing 51) — combined z-score class = no change with or without drug; viability z-score with doxorubicin = 0; viability z-score without drug = -0.17; activity call = inactive
